Binding data for 1 substance are collected here from paper PMC11777248.

Protein sequences, listed by entry. Tags and fused reporters are not part of them. Lines headed by an entry give the natural chain unless they say otherwise; changes in a name come on top.
UniProt Q9CAJ0: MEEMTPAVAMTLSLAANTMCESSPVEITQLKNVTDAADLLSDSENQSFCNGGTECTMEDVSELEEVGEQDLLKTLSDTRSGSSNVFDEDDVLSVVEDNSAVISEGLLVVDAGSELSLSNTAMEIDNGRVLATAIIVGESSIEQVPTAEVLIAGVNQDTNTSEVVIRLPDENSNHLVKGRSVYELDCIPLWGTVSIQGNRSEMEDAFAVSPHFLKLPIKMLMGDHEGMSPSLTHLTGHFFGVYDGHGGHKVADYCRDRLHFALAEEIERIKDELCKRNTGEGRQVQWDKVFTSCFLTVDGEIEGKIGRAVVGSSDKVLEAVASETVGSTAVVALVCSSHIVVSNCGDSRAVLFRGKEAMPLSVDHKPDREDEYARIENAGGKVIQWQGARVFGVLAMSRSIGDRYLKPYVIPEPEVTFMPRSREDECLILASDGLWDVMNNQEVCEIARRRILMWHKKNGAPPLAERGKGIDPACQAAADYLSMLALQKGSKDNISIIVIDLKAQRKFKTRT

No constants are given. Whether binding was seen depends on the method and setting. Binding seen in cells or lysates may run through a third protein. Binding can be weak; no strength is given. Where a sequence is shown, tags or fusion partners need not be part of it.

The target in experiment [1] is T1, SnRK2.4 nLUC fusion (Arabidopsis) (UniProt P43291).
T1 sequence: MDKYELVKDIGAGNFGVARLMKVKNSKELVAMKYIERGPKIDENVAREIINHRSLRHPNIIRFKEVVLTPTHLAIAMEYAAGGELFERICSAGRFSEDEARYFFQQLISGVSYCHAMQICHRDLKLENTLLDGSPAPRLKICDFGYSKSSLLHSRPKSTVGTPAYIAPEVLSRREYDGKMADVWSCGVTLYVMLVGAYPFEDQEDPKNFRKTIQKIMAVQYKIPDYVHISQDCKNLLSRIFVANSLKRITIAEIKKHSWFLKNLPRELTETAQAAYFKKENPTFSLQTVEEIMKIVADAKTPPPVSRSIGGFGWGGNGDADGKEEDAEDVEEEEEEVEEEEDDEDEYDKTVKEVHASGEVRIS
Briefly: split reporter; split-LUC complementation; SnRK2s in pCAMBIA-35S-nLUC, PP2Cs in pCAMBIA-35S-cLUC; transient expression in N. benthamiana leaves, LUC activity read 2 days after infiltration with D-luciferin.

Experiment [2] deals with T2, SnRK2.1 nLUC fusion (Arabidopsis) (UniProt P43292).
T2 sequence: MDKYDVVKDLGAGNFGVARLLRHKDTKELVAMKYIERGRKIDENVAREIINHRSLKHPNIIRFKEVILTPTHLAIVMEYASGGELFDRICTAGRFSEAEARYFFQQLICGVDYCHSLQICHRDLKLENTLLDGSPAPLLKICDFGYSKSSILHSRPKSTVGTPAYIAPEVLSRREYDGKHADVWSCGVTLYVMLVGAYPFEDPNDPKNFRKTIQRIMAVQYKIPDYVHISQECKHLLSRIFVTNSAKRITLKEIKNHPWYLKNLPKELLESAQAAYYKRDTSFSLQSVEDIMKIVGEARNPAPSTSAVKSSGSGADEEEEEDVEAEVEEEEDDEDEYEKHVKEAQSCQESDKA
The experiment is described as above.

Turning to “HAB1 cLUC fusion (from UniProt Q9CAJ0) (enzyme)”, the binding entry in experiment [1] and in experiment [2] was “binds” in each case.
